# Measurements published in article doi:10.1101/180380.
# B1: BAM1 from Arabidopsis fused to a fluorescent protein for FRET-FLIM (receptor, UniProt O49545 20-1003)
# chain: SRPISEFRALLSLKTSLTGAGDDKNSPLSSWKVSTSFCTWIGVTCDVSRRHVTSLDLSGLNLSGTLSPDVSHLRLLQNLSLAENLISGPIPPEISSLSGLRHLNLSNNVFNGSFPDEISSGLVNLRVLDVYNNNLTGDLPVSVTNLTQLRHLHLGGNYFAGKIPPSYGSWPVIEYLAVSGNELVGKIPPEIGNLTTLRELYIGYYNAFEDGLPPEIGNLSELVRFDGANCGLTGEIPPEIGKLQKLDTLFLQVNVFSGPLTWELGTLSSLKSMDLSNNMFTGEIPASFAELKNLTLLNLFRNKLHGEIPEFIGDLPELEVLQLWENNFTGSIPQKLGENGKLNLVDLSSNKLTGTLPPNMCSGNKLETLITLGNFLFGSIPDSLGKCESLTRIRMGENFLNGSIPKGLFGLPKLTQVELQDNYLSGELPVAGGVSVNLGQISLSNNQLSGPLPPAIGNFTGVQKLLLDGNKFQGPIPSEVGKLQQLSKIDFSHNLFSGRIAPEISRCKLLTFVDLSRNELSGEIPNEITAMKILNYLNLSRNHLVGSIPGSISSMQSLTSLDFSYNNLSGLVPGTGQFSYFNYTSFLGNPDLCGPYLGPCKDGVAKGGHQSHSKGPLSASMKLLLVLGLLVCSIAFAVVAIIKARSLKKASESRAWRLTAFQRLDFTCDDVLDSLKEDNIIGKGGAGIVYKGVMPNGDLVAVKRLAAMSRGSSHDHGFNAEIQTLGRIRHRHIVRLLGFCSNHETNLLVYEYMPNGSLGEVLHGKKGGHLHWDTRYKIALEAAKGLCYLHHDCSPLIVHRDVKSNNILLDSNFEAHVADFGLAKFLQDSGTSECMSAIAGSYGYIAPEYAYTLKVDEKSDVYSFGVVLLELVTGRKPVGEFGDGVDIVQWVRKMTDSNKDSVLKVLDPRLSSIPIHEVTHVFYVAMLCVEEQAVERPTMREVVQILTEIPKLPPSKDQPMTESAPESELSPKSGVQSPPDLLNL
# B2: BAM2 fused to a fluorescent protein for FRET-FLIM (receptor, UniProt Q9M2Z1 23-1002)
# chain: KPITELHALLSLKSSFTIDEHSPLLTSWNLSTTFCSWTGVTCDVSLRHVTSLDLSGLNLSGTLSSDVAHLPLLQNLSLAANQISGPIPPQISNLYELRHLNLSNNVFNGSFPDELSSGLVNLRVLDLYNNNLTGDLPVSLTNLTQLRHLHLGGNYFSGKIPATYGTWPVLEYLAVSGNELTGKIPPEIGNLTTLRELYIGYYNAFENGLPPEIGNLSELVRFDAANCGLTGEIPPEIGKLQKLDTLFLQVNAFTGTITQELGLISSLKSMDLSNNMFTGEIPTSFSQLKNLTLLNLFRNKLYGAIPEFIGEMPELEVLQLWENNFTGSIPQKLGENGRLVILDLSSNKLTGTLPPNMCSGNRLMTLITLGNFLFGSIPDSLGKCESLTRIRMGENFLNGSIPKELFGLPKLSQVELQDNYLTGELPISGGGVSGDLGQISLSNNQLSGSLPAAIGNLSGVQKLLLDGNKFSGSIPPEIGRLQQLSKLDFSHNLFSGRIAPEISRCKLLTFVDLSRNELSGDIPNELTGMKILNYLNLSRNHLVGSIPVTIASMQSLTSVDFSYNNLSGLVPSTGQFSYFNYTSFVGNSHLCGPYLGPCGKGTHQSHVKPLSATTKLLLVLGLLFCSMVFAIVAIIKARSLRNASEAKAWRLTAFQRLDFTCDDVLDSLKEDNIIGKGGAGIVYKGTMPKGDLVAVKRLATMSHGSSHDHGFNAEIQTLGRIRHRHIVRLLGFCSNHETNLLVYEYMPNGSLGEVLHGKKGGHLHWNTRYKIALEAAKGLCYLHHDCSPLIVHRDVKSNNILLDSNFEAHVADFGLAKFLQDSGTSECMSAIAGSYGYIAPEYAYTLKVDEKSDVYSFGVVLLELITGKKPVGEFGDGVDIVQWVRSMTDSNKDCVLKVIDLRLSSVPVHEVTHVFYVALLCVEEQAVERPTMREVVQILTEIPKIPLSKQQAAESDVTEKAPAINESSPDSGSPPDLLSN
# B3: BAM3-GFP (receptor, UniProt O65440 22-992)
# chain: SLISPLNLSLIRQANVLISLKQSFDSYDPSLDSWNIPNFNSLCSWTGVSCDNLNQSITRLDLSNLNISGTISPEISRLSPSLVFLDISSNSFSGELPKEIYELSGLEVLNISSNVFEGELETRGFSQMTQLVTLDAYDNSFNGSLPLSLTTLTRLEHLDLGGNYFDGEIPRSYGSFLSLKFLSLSGNDLRGRIPNELANITTLVQLYLGYYNDYRGGIPADFGRLINLVHLDLANCSLKGSIPAELGNLKNLEVLFLQTNELTGSVPRELGNMTSLKTLDLSNNFLEGEIPLELSGLQKLQLFNLFFNRLHGEIPEFVSELPDLQILKLWHNNFTGKIPSKLGSNGNLIEIDLSTNKLTGLIPESLCFGRRLKILILFNNFLFGPLPEDLGQCEPLWRFRLGQNFLTSKLPKGLIYLPNLSLLELQNNFLTGEIPEEEAGNAQFSSLTQINLSNNRLSGPIPGSIRNLRSLQILLLGANRLSGQIPGEIGSLKSLLKIDMSRNNFSGKFPPEFGDCMSLTYLDLSHNQISGQIPVQISQIRILNYLNVSWNSFNQSLPNELGYMKSLTSADFSHNNFSGSVPTSGQFSYFNNTSFLGNPFLCGFSSNPCNGSQNQSQSQLLNQNNARSRGEISAKFKLFFGLGLLGFFLVFVVLAVVKNRRMRKNNPNLWKLIGFQKLGFRSEHILECVKENHVIGKGGRGIVYKGVMPNGEEVAVKKLLTITKGSSHDNGLAAEIQTLGRIRHRNIVRLLAFCSNKDVNLLVYEYMPNGSLGEVLHGKAGVFLKWETRLQIALEAAKGLCYLHHDCSPLIIHRDVKSNNILLGPEFEAHVADFGLAKFMMQDNGASECMSSIAGSYGYIAPEYAYTLRIDEKSDVYSFGVVLLELITGRKPVDNFGEEGIDIVQWSKIQTNCNRQGVVKIIDQRLSNIPLAEAMELFFVAMLCVQEHSVERPTMREVVQMISQAKQPNTF
# B4: BAM3 fused to a fluorescent protein for FRET-FLIM (receptor, UniProt O65440 22-992)
# chain: B3 chain
# Tests used:
# [1] = biological target: C4 fused to a fluorescent protein for FRET-FLIM (Tomato yellow leaf curl virus); test: FRET or BRET
# [2] = biological target: C4-3xHA (C4 protein from Tomato yellow leaf curl virus) (Tomato yellow leaf curl virus); test: co-IP
Binder,binding [1],binding [2]
B1,binds,
B2,binds,
B3,,binds weakly
B4,binds weakly,

# No constants are given. Whether binding was seen depends on the method and setting. Binding seen in cells or lysates may run through a third protein. Binding calls can cover weak binding; strength is not graded here. Where a sequence is shown, tags or fusion partners need not be part of it.
